Results on three substances are retold here after publication PMC4909395.

The chains behind the UniProt entries cited, without tags or fusion partners.
UniProt O14744: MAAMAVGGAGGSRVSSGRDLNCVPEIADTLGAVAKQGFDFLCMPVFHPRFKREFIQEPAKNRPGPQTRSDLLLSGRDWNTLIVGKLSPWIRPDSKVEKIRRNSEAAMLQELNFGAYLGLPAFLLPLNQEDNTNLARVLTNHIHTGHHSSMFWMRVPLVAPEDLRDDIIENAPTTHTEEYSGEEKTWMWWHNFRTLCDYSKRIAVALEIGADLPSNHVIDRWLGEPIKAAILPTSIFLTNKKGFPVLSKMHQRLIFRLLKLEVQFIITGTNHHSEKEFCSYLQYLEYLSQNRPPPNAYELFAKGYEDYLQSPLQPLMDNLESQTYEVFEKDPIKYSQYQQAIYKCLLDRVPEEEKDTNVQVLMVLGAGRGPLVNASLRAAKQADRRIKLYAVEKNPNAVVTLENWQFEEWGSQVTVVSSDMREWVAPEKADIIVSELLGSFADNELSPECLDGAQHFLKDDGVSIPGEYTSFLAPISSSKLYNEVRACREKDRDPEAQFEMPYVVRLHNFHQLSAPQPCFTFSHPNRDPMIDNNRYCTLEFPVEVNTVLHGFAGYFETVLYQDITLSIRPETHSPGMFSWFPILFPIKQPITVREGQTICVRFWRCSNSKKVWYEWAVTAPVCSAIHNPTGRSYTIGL
UniProt P78527: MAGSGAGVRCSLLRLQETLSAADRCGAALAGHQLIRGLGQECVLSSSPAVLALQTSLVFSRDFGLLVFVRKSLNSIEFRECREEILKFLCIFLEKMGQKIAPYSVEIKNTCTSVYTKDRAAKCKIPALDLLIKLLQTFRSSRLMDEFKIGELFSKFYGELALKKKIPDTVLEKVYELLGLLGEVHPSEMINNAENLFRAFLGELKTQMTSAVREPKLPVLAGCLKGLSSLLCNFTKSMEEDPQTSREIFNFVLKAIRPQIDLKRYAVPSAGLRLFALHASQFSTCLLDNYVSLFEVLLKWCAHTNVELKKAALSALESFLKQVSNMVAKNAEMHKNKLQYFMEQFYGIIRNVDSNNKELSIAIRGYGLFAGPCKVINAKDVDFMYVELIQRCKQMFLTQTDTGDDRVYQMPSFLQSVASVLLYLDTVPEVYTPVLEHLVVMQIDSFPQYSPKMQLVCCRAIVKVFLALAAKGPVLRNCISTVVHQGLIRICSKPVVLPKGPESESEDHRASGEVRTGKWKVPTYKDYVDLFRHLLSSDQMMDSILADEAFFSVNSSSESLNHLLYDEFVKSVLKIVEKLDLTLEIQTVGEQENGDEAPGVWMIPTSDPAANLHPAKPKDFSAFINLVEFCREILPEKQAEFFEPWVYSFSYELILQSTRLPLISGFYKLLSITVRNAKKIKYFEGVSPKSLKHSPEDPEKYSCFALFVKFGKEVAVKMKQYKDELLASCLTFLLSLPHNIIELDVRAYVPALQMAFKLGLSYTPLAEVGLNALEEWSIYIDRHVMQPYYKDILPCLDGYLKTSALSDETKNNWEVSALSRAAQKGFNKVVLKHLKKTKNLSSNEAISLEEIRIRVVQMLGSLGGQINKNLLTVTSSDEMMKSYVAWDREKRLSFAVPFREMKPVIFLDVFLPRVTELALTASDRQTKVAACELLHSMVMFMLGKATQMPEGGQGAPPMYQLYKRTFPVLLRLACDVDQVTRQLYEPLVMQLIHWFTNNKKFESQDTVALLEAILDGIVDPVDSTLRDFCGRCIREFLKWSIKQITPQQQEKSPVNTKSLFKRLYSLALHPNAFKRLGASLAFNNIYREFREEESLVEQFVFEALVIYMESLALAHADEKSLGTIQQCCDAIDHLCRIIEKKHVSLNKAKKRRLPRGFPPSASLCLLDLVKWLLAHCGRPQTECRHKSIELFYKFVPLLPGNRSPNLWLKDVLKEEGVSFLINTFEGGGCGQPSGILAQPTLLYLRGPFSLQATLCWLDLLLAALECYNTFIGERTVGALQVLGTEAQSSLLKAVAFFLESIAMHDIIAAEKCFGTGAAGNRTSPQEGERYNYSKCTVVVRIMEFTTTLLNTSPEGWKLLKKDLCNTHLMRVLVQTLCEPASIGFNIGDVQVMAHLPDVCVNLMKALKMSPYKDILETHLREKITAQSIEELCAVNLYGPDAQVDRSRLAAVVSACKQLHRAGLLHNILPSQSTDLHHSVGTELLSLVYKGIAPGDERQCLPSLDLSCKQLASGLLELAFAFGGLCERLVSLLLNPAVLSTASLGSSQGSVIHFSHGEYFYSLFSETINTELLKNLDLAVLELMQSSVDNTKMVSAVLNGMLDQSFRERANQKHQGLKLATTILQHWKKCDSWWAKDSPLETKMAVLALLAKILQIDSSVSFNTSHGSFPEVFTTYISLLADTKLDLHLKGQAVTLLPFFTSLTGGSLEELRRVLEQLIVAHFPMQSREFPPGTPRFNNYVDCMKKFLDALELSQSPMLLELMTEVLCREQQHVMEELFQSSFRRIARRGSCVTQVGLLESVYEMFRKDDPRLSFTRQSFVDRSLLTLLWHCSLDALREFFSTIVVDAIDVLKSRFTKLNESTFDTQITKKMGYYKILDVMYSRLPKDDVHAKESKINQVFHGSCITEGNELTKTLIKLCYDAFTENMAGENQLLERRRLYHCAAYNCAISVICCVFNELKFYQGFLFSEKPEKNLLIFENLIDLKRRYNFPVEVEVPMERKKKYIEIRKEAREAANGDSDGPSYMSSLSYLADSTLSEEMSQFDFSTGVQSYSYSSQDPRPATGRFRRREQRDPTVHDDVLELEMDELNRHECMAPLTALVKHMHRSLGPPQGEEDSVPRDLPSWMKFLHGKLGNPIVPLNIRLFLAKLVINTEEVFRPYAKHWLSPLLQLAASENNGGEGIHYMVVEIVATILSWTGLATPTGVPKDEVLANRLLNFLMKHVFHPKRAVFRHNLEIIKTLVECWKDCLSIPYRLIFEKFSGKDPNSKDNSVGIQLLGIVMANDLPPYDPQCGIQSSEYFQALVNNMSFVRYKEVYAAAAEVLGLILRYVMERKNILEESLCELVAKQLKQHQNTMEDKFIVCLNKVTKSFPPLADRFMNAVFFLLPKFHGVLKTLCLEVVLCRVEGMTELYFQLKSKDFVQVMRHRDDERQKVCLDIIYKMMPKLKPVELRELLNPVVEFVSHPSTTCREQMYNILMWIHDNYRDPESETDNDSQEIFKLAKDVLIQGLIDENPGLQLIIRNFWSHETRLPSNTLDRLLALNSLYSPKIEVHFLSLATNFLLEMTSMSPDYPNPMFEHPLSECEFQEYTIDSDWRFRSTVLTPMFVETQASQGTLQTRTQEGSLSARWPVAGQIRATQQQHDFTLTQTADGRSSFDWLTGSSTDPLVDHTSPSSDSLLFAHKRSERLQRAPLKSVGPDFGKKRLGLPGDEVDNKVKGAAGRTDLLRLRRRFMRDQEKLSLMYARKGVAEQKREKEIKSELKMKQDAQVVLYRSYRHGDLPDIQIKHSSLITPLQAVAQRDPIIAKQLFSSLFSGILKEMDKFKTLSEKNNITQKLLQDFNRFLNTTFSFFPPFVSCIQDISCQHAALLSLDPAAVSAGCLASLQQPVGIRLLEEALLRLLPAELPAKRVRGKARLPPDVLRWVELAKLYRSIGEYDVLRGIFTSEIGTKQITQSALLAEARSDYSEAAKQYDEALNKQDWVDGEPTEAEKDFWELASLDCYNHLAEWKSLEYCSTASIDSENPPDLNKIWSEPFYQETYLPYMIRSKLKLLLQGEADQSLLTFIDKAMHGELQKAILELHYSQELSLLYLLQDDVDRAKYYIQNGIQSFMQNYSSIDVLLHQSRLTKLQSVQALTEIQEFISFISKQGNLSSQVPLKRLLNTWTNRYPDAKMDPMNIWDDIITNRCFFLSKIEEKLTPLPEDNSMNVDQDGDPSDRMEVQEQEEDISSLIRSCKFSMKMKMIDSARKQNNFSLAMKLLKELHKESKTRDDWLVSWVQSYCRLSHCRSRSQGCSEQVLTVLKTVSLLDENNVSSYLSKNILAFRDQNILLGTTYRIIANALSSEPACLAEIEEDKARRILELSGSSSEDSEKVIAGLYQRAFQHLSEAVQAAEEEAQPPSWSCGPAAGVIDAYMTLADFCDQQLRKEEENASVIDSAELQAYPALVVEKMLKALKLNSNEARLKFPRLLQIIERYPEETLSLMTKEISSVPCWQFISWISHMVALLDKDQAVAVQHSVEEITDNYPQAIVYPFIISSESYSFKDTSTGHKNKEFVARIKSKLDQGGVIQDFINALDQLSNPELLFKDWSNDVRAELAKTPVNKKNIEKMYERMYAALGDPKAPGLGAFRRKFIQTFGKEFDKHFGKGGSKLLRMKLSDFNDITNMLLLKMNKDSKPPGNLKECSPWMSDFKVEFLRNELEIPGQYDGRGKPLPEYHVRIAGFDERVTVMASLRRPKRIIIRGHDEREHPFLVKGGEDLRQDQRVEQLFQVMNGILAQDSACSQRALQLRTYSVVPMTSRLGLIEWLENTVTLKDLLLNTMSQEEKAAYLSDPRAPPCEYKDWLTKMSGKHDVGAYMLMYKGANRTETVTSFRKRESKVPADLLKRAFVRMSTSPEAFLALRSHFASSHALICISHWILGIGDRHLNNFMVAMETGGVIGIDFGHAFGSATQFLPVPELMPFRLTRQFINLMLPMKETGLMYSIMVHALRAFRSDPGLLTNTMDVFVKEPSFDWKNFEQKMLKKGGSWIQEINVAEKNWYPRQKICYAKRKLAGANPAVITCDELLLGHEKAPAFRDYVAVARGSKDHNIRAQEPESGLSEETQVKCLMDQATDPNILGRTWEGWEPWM

The target of this experiment is T1, ERG (endogenous, from TMPRSS2:ERG-positive VCaP cells) (human (endogenous in VCaP)) (UniProt P11308).
T1 sequence: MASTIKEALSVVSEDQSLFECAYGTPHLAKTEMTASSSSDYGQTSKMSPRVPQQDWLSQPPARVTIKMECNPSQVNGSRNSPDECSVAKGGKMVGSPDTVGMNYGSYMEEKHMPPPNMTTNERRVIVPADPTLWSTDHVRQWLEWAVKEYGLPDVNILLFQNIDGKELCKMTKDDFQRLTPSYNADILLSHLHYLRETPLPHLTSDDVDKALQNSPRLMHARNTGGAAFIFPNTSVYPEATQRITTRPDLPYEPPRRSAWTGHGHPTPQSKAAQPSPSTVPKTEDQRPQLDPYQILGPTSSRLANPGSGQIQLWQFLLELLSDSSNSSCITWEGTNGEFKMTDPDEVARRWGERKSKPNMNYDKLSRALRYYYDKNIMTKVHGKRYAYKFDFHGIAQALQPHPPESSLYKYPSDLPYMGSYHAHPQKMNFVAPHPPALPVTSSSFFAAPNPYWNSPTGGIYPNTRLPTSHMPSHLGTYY
The experiment can be described thus: affinity purification with mass spectrometry; nuclear extracts of VCaP cells (~600 million cells), pre-cleared; ERG antibody (Santa Cruz #353) or anti-rabbit IgG pre-coupled to beads; elution at pH 2.5; gel lanes digested, LC-MS/MS.

Results are given in words; binding and its absence hold for the method and conditions named. Binding seen in cells or lysates may run through a third protein. These calls come from enrichment with a bait or labelling near it, and not all partners need be listed.

“Androgen Receptor (endogenous, VCaP cells) (from UniProt P10275-1 1-920)”: the binding entry is on record as “binds”. As for “PRMT5 (endogenous) (from UniProt O14744 1-637) (enzyme)”, the entry is “binds”; as for “DNA-PKcs (endogenous, VCaP cells) (from UniProt P78527 1-4128)”, “binds”.
